# Assay results reported in PMC6481338.
# Protein sequences, listed by entry. Tags and fused reporters are not part of them. Lines headed by an entry give the natural chain unless they say otherwise; changes in a name come on top. Residues count along the entry.
# UniProt P16070, residues 21-742: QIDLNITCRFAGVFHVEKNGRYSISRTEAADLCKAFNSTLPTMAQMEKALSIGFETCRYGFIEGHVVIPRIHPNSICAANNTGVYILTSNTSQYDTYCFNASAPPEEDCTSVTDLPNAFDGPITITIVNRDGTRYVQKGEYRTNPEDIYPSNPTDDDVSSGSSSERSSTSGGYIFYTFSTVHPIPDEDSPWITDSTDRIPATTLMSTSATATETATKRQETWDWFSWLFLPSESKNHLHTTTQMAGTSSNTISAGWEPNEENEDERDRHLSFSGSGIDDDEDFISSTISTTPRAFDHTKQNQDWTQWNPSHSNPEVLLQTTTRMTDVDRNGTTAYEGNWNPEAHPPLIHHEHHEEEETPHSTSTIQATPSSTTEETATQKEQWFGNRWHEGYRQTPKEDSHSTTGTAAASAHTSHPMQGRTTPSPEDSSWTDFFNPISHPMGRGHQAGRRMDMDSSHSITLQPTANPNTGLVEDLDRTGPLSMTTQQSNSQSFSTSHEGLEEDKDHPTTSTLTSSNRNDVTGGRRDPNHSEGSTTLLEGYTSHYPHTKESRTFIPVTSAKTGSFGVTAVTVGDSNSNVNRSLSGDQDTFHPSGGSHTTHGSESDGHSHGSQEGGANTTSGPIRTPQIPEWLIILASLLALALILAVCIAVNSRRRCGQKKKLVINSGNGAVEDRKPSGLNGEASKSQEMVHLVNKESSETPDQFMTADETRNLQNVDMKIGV
# UniProt P05556: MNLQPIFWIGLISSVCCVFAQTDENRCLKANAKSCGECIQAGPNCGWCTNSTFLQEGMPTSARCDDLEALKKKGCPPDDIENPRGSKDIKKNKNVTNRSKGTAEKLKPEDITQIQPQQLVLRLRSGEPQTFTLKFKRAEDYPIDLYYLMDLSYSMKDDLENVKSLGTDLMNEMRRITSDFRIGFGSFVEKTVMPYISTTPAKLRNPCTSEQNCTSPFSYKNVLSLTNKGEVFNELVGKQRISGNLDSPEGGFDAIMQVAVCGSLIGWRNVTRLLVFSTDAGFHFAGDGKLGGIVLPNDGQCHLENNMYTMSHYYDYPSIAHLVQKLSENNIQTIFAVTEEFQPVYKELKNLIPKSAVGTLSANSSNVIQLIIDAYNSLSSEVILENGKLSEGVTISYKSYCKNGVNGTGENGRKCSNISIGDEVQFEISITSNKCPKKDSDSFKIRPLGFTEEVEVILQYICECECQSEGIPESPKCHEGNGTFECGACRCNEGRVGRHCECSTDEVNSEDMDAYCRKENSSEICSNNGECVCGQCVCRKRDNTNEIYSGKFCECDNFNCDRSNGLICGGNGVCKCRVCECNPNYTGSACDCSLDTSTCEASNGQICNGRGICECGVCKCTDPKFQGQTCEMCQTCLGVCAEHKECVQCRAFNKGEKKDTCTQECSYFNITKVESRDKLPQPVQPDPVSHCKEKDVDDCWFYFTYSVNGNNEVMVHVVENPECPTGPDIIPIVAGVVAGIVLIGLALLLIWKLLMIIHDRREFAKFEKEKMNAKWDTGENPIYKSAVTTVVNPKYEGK
# Results are given in words; binding and its absence hold for the method and conditions named. Binding seen in cells or lysates may run through a third protein. Some binding calls cover weakened binding; strength is not graded here.
# T1: CLDN7 (human (endogenous in TMK-1)) (UniProt O95471)
# T1 sequence: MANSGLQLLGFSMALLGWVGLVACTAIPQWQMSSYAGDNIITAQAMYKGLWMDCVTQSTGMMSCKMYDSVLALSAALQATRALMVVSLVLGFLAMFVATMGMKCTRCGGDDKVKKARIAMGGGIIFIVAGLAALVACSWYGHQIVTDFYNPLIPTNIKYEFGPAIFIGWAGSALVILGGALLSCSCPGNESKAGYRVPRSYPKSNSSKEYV
# T2: claudin-4 (CLDN4) (human (endogenous in TMK-1 and MKN74)), O14493
# T2 chain: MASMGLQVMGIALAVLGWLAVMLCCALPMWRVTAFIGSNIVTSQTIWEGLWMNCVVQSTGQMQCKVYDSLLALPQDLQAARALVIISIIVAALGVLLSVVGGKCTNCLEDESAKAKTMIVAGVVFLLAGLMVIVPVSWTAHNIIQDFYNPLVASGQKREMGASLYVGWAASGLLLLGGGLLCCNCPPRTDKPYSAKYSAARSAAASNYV
# T3: CLDN7 (human (endogenous in TMK-1)), O95471
# T3 chain: T1 sequence
# B1: claudin-4 (CLDN4), O14493 1-209 (protein)
# chain: T2 chain
# How the values were obtained:
# Assay in all cases: co-IP; whole-cell lysates of TMK-1 (and MKN74 for CLDN4-CLDN4), pre-cleaned with protein A/G agarose; precipitation antibody to CLDN4 (4D3) or CLDN7 with protein A/G agarose, 3 h at 4°C, five washes with lysis buffer; immunoblot for CLDN4, integrin β1, CD44; cells untreated, treated with 4D3, or with CLDN4 or ITGβ1 knockdown
# [1] = biological target: claudin-4 (CLDN4) (human (endogenous in TMK-1 and MKN74)) (UniProt O14493)
# [2] = biological target: T1, CLDN7 (human (endogenous in TMK-1))
# [3] = biological target: T2, claudin-4 (CLDN4) (human (endogenous in …)); details: remark: other sources report otherwise
# [4] = biological target: T3, CLDN7 (human (endogenous in TMK-1)), …; details: remark: other sources report otherwise
molecule,measurement,setting,value
CD44 (from UniProt P16070 21-742) (receptor),binding,[1],binds
integrin β1 (ITGβ1) (from UniProt P05556 21-798) (receptor),binding,[2],binds
B1,binding,[3],binds
same,binding,[4],no binding
